Reference: paper PMC12259270, “Sensory neuron–expressed FGF13 controls nociceptive signaling in diabetic neuropathy models” (The Journal of Clinical Investigation, 2025)
No constants are given. Whether binding was seen depends on the method and setting. Binding seen in cells or lysates may run through a third protein. Some binding calls cover weakened binding; strength is not graded here. Where a sequence is shown, tags or fusion partners need not be part of it.

By UniProt entry, the sequences of proteins in these tests, tags left out. Residues count along the entry.
UniProt Q15858, residues 1791-1988: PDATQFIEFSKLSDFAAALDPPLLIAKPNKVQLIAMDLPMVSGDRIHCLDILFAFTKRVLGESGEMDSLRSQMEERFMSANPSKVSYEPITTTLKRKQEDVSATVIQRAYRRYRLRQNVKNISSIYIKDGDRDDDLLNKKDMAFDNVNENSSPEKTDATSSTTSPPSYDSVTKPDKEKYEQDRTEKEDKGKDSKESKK

Target: CD4-Nav1.7-CTD-NLuc (human) (UniProt Q15858)
Experiment: split reporter; split-luciferase complementation assay (LCA) in transfected cells, 96-well plates, D-luciferin added at time zero, luminescence read at 2 min intervals for 20-30 min at 37 °C

- binding: binds
B1: CLuc-FGF13 (protein, UniProt Q92913-2 1-192)
chain: MALLRKSYSEPQLKGIVTKLYSRQGYHLQLQADGTIDGTKDEDSTYTLFNLIPVGLRVVAIQGVQTKLYLAMNSEGYLYTSELFTPECKFKESVFENYYVTYSSMIYRQQQSGRGWYLGLNKEGEIMKGNHVKKNKPAAHFLPKPLKVAMYKEPSLHDLTEFSRSGSGTPTKSRSVSGVLNGGKSMSHNEST
